Reference: patent US20260265394A1 (CARTESIAN THERAPEUTICS, published 2026)

T1: allophycocyanin (APC)-conjugated BCMA (Recombinant Human TNFRSF17 protein, Fc-tagged, APC labeled); Creative … (human, UniProt Q02223 1-54, allophycocyanin (APC) conjugated)
T1 construct: Bought reagent, used at 0.4 ug/mL to stain CAR T cells; also called BCMA-APC; recombinant BCMA-APC; not shown: Fc tag
T1 sequence (looked up): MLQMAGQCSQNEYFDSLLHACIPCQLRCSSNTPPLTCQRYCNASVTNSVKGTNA

B1: Anti-BCMA CAR containing K-A CD3z only (SEQ ID NO: 3) (receptor)
chain: DIVLTQSPASLAVSPGQRATITCRASESVTILGSHLIHWYQQKPGQPPKLLINLASNVNTGVPARFSGSGSGTDFTLTISSVEPEDTANYYCLQSRTLPRTFGQGTKVEIKGSTSGSGKPGSGEGSTKGQIQLVQSGPELKKPGGSVKISCKASGYTFTDYSINWVRQAPGKGLEWVGWINTETREPAYAYDFRGRFTFSADTSKSMAYLQINSLRAEDTAVYYCALDYTYGMDYWGQGTLVTVSSFVPVFLPAKPTTTPAPRPPTPAPTIASQPLSLRPEACRPAAGGAVHTRGLDFACDIYIWAPLAGTCGVLLLSLVITLYCNHRNRVAFSRSADAPAYQQGQNQLYNELNLGRREEYDVLDARRGRDPEMGGAPQRRANPQEGLYNELQADAMAEAYSEIGMAGERRRGAGHDGLYQGLSTATADTYDALHMQALPPR
notes: Chimeric antigen receptor on human CD8+ T cells; also called K-A CAR
B2: Anti-BCMA CAR containing K-D CD3z only (SEQ ID NO: 4) (receptor)
chain: DIVLTQSPASLAVSPGQRATITCRASESVTILGSHLIHWYQQKPGQPPKLLINLASNVNTGVPARFSGSGSGTDFTLTISSVEPEDTANYYCLQSRTLPRTFGQGTKVEIKGSTSGSGKPGSGEGSTKGQIQLVQSGPELKKPGGSVKISCKASGYTFTDYSINWVRQAPGKGLEWVGWINTETREPAYAYDFRGRFTFSADTSKSMAYLQINSLRAEDTAVYYCALDYTYGMDYWGQGTLVTVSSFVPVFLPAKPTTTPAPRPPTPAPTIASQPLSLRPEACRPAAGGAVHTRGLDFACDIYIWAPLAGTCGVLLLSLVITLYCNHRNRVDFSRSADAPAYQQGQNQLYNELNLGRREEYDVLDDRRGRDPEMGGDPQRRDNPQEGLYNELQDDDMAEAYSEIGMDGERRRGDGHDGLYQGLSTATDDTYDALHMQALPPR
notes: Chimeric antigen receptor on human CD8+ T cells; also called K-D CAR
B3: Anti-BCMA CAR containing K-E CD3z only (SEQ ID NO: 5) (receptor)
chain: DIVLTQSPASLAVSPGQRATITCRASESVTILGSHLIHWYQQKPGQPPKLLINLASNVNTGVPARFSGSGSGTDFTLTISSVEPEDTANYYCLQSRTLPRTFGQGTKVEIKGSTSGSGKPGSGEGSTKGQIQLVQSGPELKKPGGSVKISCKASGYTFTDYSINWVRQAPGKGLEWVGWINTETREPAYAYDFRGRFTFSADTSKSMAYLQINSLRAEDTAVYYCALDYTYGMDYWGQGTLVTVSSFVPVFLPAKPTTTPAPRPPTPAPTIASQPLSLRPEACRPAAGGAVHTRGLDFACDIYIWAPLAGTCGVLLLSLVITLYCNHRNRVEFSRSADAPAYQQGQNQLYNELNLGRREEYDVLDERRGRDPEMGGEPQRRENPQEGLYNELQEDEMAEAYSEIGMEGERRRGEGHDGLYQGLSTATEDTYDALHMQALPPR
notes: Chimeric antigen receptor on human CD8+ T cells; also called K-E CAR
B4: Anti-BCMA CAR containing K-R CD3z only (SEQ ID NO: 2) (receptor)
chain: DIVLTQSPASLAVSPGQRATITCRASESVTILGSHLIHWYQQKPGQPPKLLINLASNVNTGVPARFSGSGSGTDFTLTISSVEPEDTANYYCLQSRTLPRTFGQGTKVEIKGSTSGSGKPGSGEGSTKGQIQLVQSGPELKKPGGSVKISCKASGYTFTDYSINWVRQAPGKGLEWVGWINTETREPAYAYDFRGRFTFSADTSKSMAYLQINSLRAEDTAVYYCALDYTYGMDYWGQGTLVTVSSFVPVFLPAKPTTTPAPRPPTPAPTIASQPLSLRPEACRPAAGGAVHTRGLDFACDIYIWAPLAGTCGVLLLSLVITLYCNHRNRVRFSRSADAPAYQQGQNQLYNELNLGRREEYDVLDRRRGRDPEMGGRPQRRRNPQEGLYNELQRDRMAEAYSEIGMRGERRRGRGHDGLYQGLSTATRDTYDALHMQALPPR
notes: Chimeric antigen receptor on human CD8+ T cells; also called K-R CAR

Target: T1, allophycocyanin (APC)-conjugated BCMA …
Assay: flow cytometry, CAR T cells stained with BCMA-APC
Method: CAR T cells obtained from the above-described process were tested for viability, CAR protein expression, BCMA binding, cytotoxicity, i.e., the ability to kill BCMA+ myeloma (tumor) cells, and cytokine production. Resistance of the CAR protein to downregulation was tested by incubation of CAR T cells with, or without, BCMA+ myeloma cells, followed by analysis of CAR expression. Viability, CAR expression, and BCMA binding were determined by flow cytometry on a Guava® EasyCyte® 12HT Flow cytometer (Luminex). To test viability, a sample of the CAR T cells was mixed with propidium iodide and acridine orange and analyzed by fluorescence microscopy using a Nexcelom Auto 2000 cytometer. To test CAR protein expression and BCMA binding, a sample of the CAR T cells was incubated with 0.4 μg/mL of allophycocyanin (APC)-conjugated BCMA (Recombinant Human TNFRSF17 protein, Fc-tagged, APC labeled; Creative Biomart, Shirley, NY). CAR expression was assessed on the flow cytometer with electronic gating on fluorescence in the red channel to detect presence or absence of emission from BCMA-APC on CAR-positive and CAR-negative cells. BCMA binding was determined by measuring the intensity of fluorescence in the red channel to determine the relative quantity of BCMA-APC bound to labelled CAR-positive cells. For the viability, expression, cytotoxicity, cytokine production and BCMA binding assays, control (non-CAR) CD8+ T cells generated by electroporation without IVT mRNA were tested as a parallel control.

Binder | binding result
B1 | binds
B2 | binds
B3 | binds
B4 | binds
